In PubChem BioAssay AID493014 (National Center for Advancing Translational Sciences (NCATS), 2011):
Some of the results follow. The main result of the screen is listed elsewhere. These columns were measured beside it and carry no call. Compounds called inactive in the main read-out are mostly missing here. Potencies come from curve fits of mixed quality, noted in brackets.

Experiment: qHTS Assay to Find Inhibitors of Chronic Active B-Cell Receptor Signaling
Settings: ABC-DLBCL IkBa-CBG/CBR reporter, luminescence ratio (green luciferase fused to IkBa over red control in TMD8 lymphoma cells), 4 h
Procedure, shortened: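 Compounds up to 46 uM were incubated four hours with TMD8 cells whose green CBG68 luciferase is fused to IkappaBalpha; red CBR luminescence normalised the signal, and concentration-effect curves were fitted to fusion, red and ratio data.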

[1] = measured here: CBR red luminescence, cell number
[2] = measured here: IkBa-CBG green luminescence

## Cc1ccc(N2NC(=O)/C(=C/c3ccc(-c4ccc(Cl)c(C(=O)O)c4)o3)C2=O)cc1C
[1]
  AC50: 15.8 µM [falling, single point]

## CCc1ccc(C(O)(C(C)C)C(CN2CCOCC2)c2ccccc2)cc1 (configuration not stated)
[1]
  AC50: 10 µM [falling, partial curve, poor fit]

## Cn1cc(CC(=O)N2CCN(c3ccccc3F)CC2)c2ccccc21
[1]
  AC50: 6.51 µM [rising, single point]
[2]
  AC50: 5.17 µM [falling, partial curve, poor fit]

## NC(=S)N/N=C1\CC(n2nnn(-c3cccc(Cl)c3)c2=S)C2COC1O2 (configuration not stated)
[1]
  AC50: 3.55 µM [falling, full curve]

## CCOc1ccc(C2=CC(c3cccc(Br)c3)n3c(nc4ccccc43)N2)cc1Cl (configuration not stated)
[1]
  AC50: 11.2 µM [falling, partial curve, poor fit]

## COc1ccc(NC(=O)c2csc3c2CCCCC3)c(OC)c1
[1]
  AC50: 5.62 µM [rising, single point]

## NNc1nccc(Nc2ccccc2C(=O)O)n1
[1]
  AC50: 7.31 µM [falling, partial curve]

## Cc1cccc(C(=O)NC(=S)N2CCN(C(=S)NC(=O)c3cccc(C)c3)CC2)c1
[2]
  AC50: 4.61 µM [falling, partial curve, poor fit]

## O=C(COC(=O)CCCOc1ccc(Cl)cc1Cl)Nc1cccc(Cl)c1
[1]
  AC50: 4.11 µM [rising, full curve, poor fit]

## COc1cccc(NC(=O)CN(C)C(=O)c2cccnc2Nc2cccc(C(F)(F)F)c2)c1
[1]
  AC50: 25.9 µM [falling, partial curve, poor fit]

## CN(C)c1cccc(C(=O)NC2CCCCCC2)c1
[1]
  AC50: 16.4 µM [falling, partial curve]

## O=C(NCc1cccs1)c1csc2ccccc12
[1]
  AC50: 1.46 µM [rising, full curve, poor fit]

## Fc1ccc(C2CC(c3ccco3)=NN2c2ccccc2)cc1 (configuration not stated)
[1]
  AC50: 0.562 µM [rising, partial curve, poor fit]

## O=S(=O)(Nc1ccc(O)c(Sc2nc3ccccc3s2)c1)c1ccc(Cl)cc1
[1]
  AC50: 12.6 µM [falling, single point]

## Cc1nc(-c2ccc(S(=O)(=O)NCC3CCN(C(=O)OC(C)(C)C)CC3)s2)cs1
[1]
  AC50: 0.0891 µM [rising, full curve, poor fit]

## Cc1ncc(CN2CCCC(CCC(=O)NCc3ccccc3F)C2)s1 (configuration not stated)
[1]
  AC50: 35.5 µM [rising, single point]

## COc1ccc(S(=O)(=O)N2CCOCC2)cc1Br
[1]
  AC50: 10 µM [rising, partial curve, poor fit]

## O=C(c1cnn2c(C(F)(F)F)cc(-c3ccc4c(c3)OCO4)nc12)N1CCCCC1
[1]
  AC50: 20 µM [rising, single point]

## CCN(CC)C(=O)C1CCCN(Cc2nc(-c3cnccn3)no2)C1 (configuration not stated)
[1]
  AC50: 11.2 µM [rising, partial curve, poor fit]

## Cn1c(O)c(N=Nc2ccccc2)c2ccccc21
[1]
  AC50: 1 µM [rising, full curve, poor fit]

## O=C(/C=C/NNC(=O)c1ccccc1)c1ccc([N+](=O)[O-])cc1
[1]
  AC50: 6.31 µM [falling, single point]

## CC(=O)Nc1ccc(S(=O)(=O)N[C@@H](C)C(=O)Nc2ccc(N3CCOCC3)cc2)cc1
[1]
  AC50: 35.5 µM [rising, partial curve, poor fit]

## Cc1ccc(NC2CC(=O)N(Cc3ccccc3)C2=O)cc1 (configuration not stated)
[1]
  AC50: 29.1 µM [rising, single point]

## O=C1CC(c2ccccc2)CC(=O)N1c1ccc(C(F)(F)F)cc1
[1]
  AC50: 23.1 µM [rising, single point]

## CC(=O)Nc1cccc(/C(C)=N/NC(=S)NC(C)C)c1
[1]
  AC50: 12.6 µM [rising, single point]

## O=C(CS(=O)(=O)c1ccccc1)Nc1nc(-c2ccccc2)cs1
[1]
  AC50: 1.84 µM [rising, partial curve, poor fit]

## CCOC(=O)C(C)n1ncn2cccc2c1=O (configuration not stated)
[1]
  AC50: 5.01 µM [rising, single point]

## COc1ccc(-c2nc(N)nc(C)c2Oc2ccccc2Br)c(O)c1
[1]
  AC50: 0.92 µM [falling, full curve]

## Cc1ccc(S(=O)(=O)N2CCN(CC(=O)N/N=C\c3ccc(O)c(O)c3)CC2)cc1
[1]
  AC50: 35.5 µM [rising, partial curve, poor fit]

## CC(Oc1ccc(Cl)cc1Cl)c1ccnc2nc(N3CCOCC3)nn12 (configuration not stated)
[1]
  AC50: 15.8 µM [falling, partial curve, poor fit]

## Cc1cccc(N2CCN(C(=O)c3c(C)nn(Cc4ccccc4Cl)c3C)CC2)c1C
[1]
  AC50: 18.4 µM [falling, partial curve, poor fit]

## COc1ccc(N2CCN(CC(=O)NCc3ccccc3)CC2)cc1
[1]
  AC50: 1.12 µM [falling, partial curve, poor fit]

## C/C(=N/NC(=O)c1ccncc1)c1ccc(NC(=O)c2ccccc2)cc1
[1]
  AC50: 35.5 µM [falling, single point]

## COc1c(/C=N/Nc2ccc(C(=O)O)cc2)c(CCN(C)C(C)=O)cc2c1OCO2
[1]
  AC50: 8.91 µM [falling, partial curve, poor fit]

## CCNc1nc(-c2cc3ccccc3o2)cs1
[1]
  AC50: 5.17 µM [falling, full curve, poor fit]

## COc1ccc(/C=C2\SC(N)=NC2=O)cc1Br
[2]
  AC50: 11.2 µM [falling, partial curve, poor fit]

## CCCNC(=O)C1CCN(S(=O)(=O)c2c(C)noc2/C=C\c2ccc(OC)cc2)CC1
[1]
  AC50: 2.91 µM [falling, partial curve, poor fit]

## CCOc1ccc(OCc2cccc(C(=O)N3CCCCCC3)c2)cc1
[1]
  AC50: 11.2 µM [falling, partial curve, poor fit]

## CCCC(=O)Nc1nc2c(s1)COc1ccccc1-2
[1]
  AC50: 0.447 µM [falling, full curve, poor fit]
[2]
  AC50: 0.708 µM [rising, full curve, poor fit]

## O=S(=O)(Nc1cc(Sc2cccc3cccnc23)c(O)c2ccccc12)c1ccc(F)cc1
[1]
  AC50: 6.51 µM [falling, single point]
[2]
  AC50: 4.61 µM [falling, single point]

## COc1ccccc1Nc1nc2ccccc2[nH]1
[1]
  AC50: 28.2 µM [falling, single point]

## O=C(NC1=NCCS1)c1ccc(Cl)c(Cl)c1
[1]
  AC50: 0.631 µM [rising, full curve, poor fit]

## CCOC(=O)CSc1nnc(-c2ccc([N+](=O)[O-])cc2)o1
[1]
  AC50: 14.1 µM [rising, single point]

## Clc1ccc(-c2nc(Cc3ccccc3)no2)cc1
[1]
  AC50: 7.31 µM [rising, partial curve, poor fit]

## CCOC(=O)CCn1c(=S)n(CCC(=O)OCC)c2ccccc21
[1]
  AC50: 0.398 µM [rising, partial curve, poor fit]

## O=C(Nc1nccs1)c1cccc(NC(=O)c2ccco2)c1
[2]
  AC50: 3.26 µM [rising, full curve, poor fit]

## CCCCOc1ccc(Br)cc1/C(C)=N/NC1=NCCN1
[2]
  AC50: 32.6 µM [falling, partial curve, poor fit]

## CCS(=O)(=O)Nc1cccc(-c2ccc3nnc(-c4cccnc4)n3n2)c1
[1]
  AC50: 3.55 µM [falling, full curve]

## O=C(CN1CCN(c2ncccn2)CC1)N1CCc2ccccc21
[1]
  AC50: 2.31 µM [rising, full curve, poor fit]

## COc1ccc(/C=N/NC(=S)Nc2ccccc2)cc1
[1]
  AC50: 5.62 µM [falling, single point]
[2]
  AC50: 5.01 µM [falling, single point]

## C=C(C)C1Cc2c(C)nn(-c3cccc4cccnc34)c2C1 (configuration not stated)
[1]
  AC50: 1 µM [falling, partial curve, poor fit]

## CC(=O)Nc1ccc(NC(=O)COC(=O)c2c(C)nn(-c3ccccc3)c2C)cc1
[1]
  AC50: 20.6 µM [falling, single point]

## Cc1ccc(CC(=O)c2ccc(Cl)cc2)cc1
[1]
  AC50: 17.8 µM [rising, partial curve, poor fit]

## O=[N+]([O-])c1ccc(NC(=S)N/C(=N/CS(=O)(=O)c2ccccc2)c2ccccc2)cc1
[1]
  AC50: 1.41 µM [rising, partial curve, poor fit]

## Cc1cccc(NC(=S)NN2CCN(C)CC2)c1
[1]
  AC50: 32.6 µM [rising, single point]

## CSc1ccc(C(=O)NC2CCSc3ccccc32)cc1 (configuration not stated)
[1]
  AC50: 0.631 µM [falling, full curve, poor fit]

## Cn1c(=O)c2ncn(CC(=O)Nc3ccc4c5c(cccc35)CC4)c2n(C)c1=O
[1]
  AC50: 4.11 µM [falling, partial curve]

## COC(=O)c1ccc(Cn2nnc3c(=O)[nH]c(C4CCCN(S(=O)(=O)c5ccccc5Cl)C4)nc32)cc1 (configuration not stated)
[1]
  AC50: 3.55 µM [rising, full curve, poor fit]

## CCCC1CCC(=NNC(=S)NCCc2ccccc2)CC1 (configuration not stated)
[2]
  AC50: 20 µM [falling, single point]

## COc1ccc(NC(=O)C(=O)c2cn(CC(=O)N3CCCC3)c3ccccc23)cc1
[1]
  AC50: 0.794 µM [falling, full curve, poor fit]
[2]
  AC50: 10 µM [falling, partial curve]

## CC(C)(C)c1ccc(OCC(=O)NCCN2CCCC2)cc1
[1]
  AC50: 7.31 µM [rising, partial curve, poor fit]

## O=C(Cc1ccccc1)N/N=C/c1ccc(OC(=O)/C=C\c2ccco2)cc1
[1]
  AC50: 29.1 µM [rising, single point]
